Test results taken from the supplement of paper PMC10338343.
± gives the standard deviation. The entries are a selection whose mix differs from that of the whole data set. The uncertainty is large for many entries.

These sequences were tested on MILI (PIWIL2) piRISC loaded with piRNA #2 (26 nt) (assay: pre-steady-state target cleavage rate (min^-1); MIWI and MILI are mouse PIWI proteins and EfPiwi is from a freshwater sponge; tags in brackets are library labels; higher = faster piRNA-guided slicing of the target). Settings: guide: piRNA #2 5'p-UUAGGUAACCCAGUAGAUCCAGAGGA; auxiliary factor: 500 nM mouse GTSF1.
Procedure, shortened: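 With or without 500 nM GTSF1 partner protein, 1 nM active affinity-purified piRISC carrying one synthetic guide was mixed with 0.1 nM transcribed, DNA-blocked target RNA library in HEPES–potassium acetate buffer at 33 °C for 0–8 or 0–960 min. Uncleaved targets were sequenced and normalised to depth and to weakly complementary targets, three trials were pooled, and k3 was capped at 0.0001 min^-1. The pre-steady-state cleavage rate came from a burst-and-steady-state fit.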
With CUUAAGGAGAGGAUCAACUGGGUAACCUAA the “pre-steady-state target cleavage rate” value was 0.000699 ± 0.014.
For CUUAAGGAGACCUUCUACACGGUUACCUAA, the “pre-steady-state target cleavage rate” value was 0.000439 ± 0.014.
With CUUAAGGAGAGCUACUACUGGGUUACCUAA the “pre-steady-state target cleavage rate” value was 0.00088 ± 0.0053.
For CUUAAGGACUGGAUCUACUGGGUUACGAUA, the “pre-steady-state target cleavage rate” value was 0.00441 ± 0.0082.
In the case of CUUAUCCUCUGGAUCUACAGGCUUACCUAA, the “pre-steady-state target cleavage rate” value is reported as 0.00164 ± 0.005.
In the case of CUUAAGGAGAGGAUCUACGUGGGUUACCUAA, the “pre-steady-state target cleavage rate” value is reported as 0.000125 ± 0.032.
In the case of CUUAUCCUCUGGAUCUACUCGGUUACCUAA, the “pre-steady-state target cleavage rate” value is reported as 0.00364 ± 0.005.
With CUUAAGGAGAGGAUCUACUGCCUUACCUAA the “pre-steady-state target cleavage rate” value was 0.000681 ± 0.0095.
For CUUAAGGAGACCUACAACUGGGUUACCUAA, the “pre-steady-state target cleavage rate” value was 0.000395 ± 0.012.
With CUUAAGGAGACGAUCUACUGGGUUCCCUAA the “pre-steady-state target cleavage rate” value was 0.000892 ± 0.0089.
In the case of CUUAAGGACUGGAACUACUCGGUUACCUAA, the “pre-steady-state target cleavage rate” value is reported as 0.000776 ± 0.026.
With CUUAUCCUCUGGAUCUACUGCCUUACCUAA the “pre-steady-state target cleavage rate” value was 0.000747 ± 0.0085.
For CUUAUCCUCUGGAUCUACUGGGUUUCCUUA, the “pre-steady-state target cleavage rate” value was 0.413 ± 0.15.
CUUAAGGAGAGGAUCUACUGGGUUAUCUAA was tested, and the “pre-steady-state target cleavage rate” value was 0.00254 ± 0.0053.
For CUUAAGGAGACGAUCUUGUGGGUUACCUAA, the “pre-steady-state target cleavage rate” value was 0.00136 ± 0.0063.
In the case of CUUAAGGAGACGAUCUACUGGGUUACCUUA, the “pre-steady-state target cleavage rate” value is reported as 0.0025 ± 0.0038.
With CUUAAGGAGACCUACUACUGGGUUACCAUA the “pre-steady-state target cleavage rate” value was 0.000258 ± 0.025.
With CUUAAGGAGUGUGAUCUACUGGGUUACCUAA the “pre-steady-state target cleavage rate” value was 0.00262 ± 0.0058.
“CUUAAGGAGACCUACUACUGGGUUACCUAA [g2:g16:cont:t1A]” was tested, and the “pre-steady-state target cleavage rate” value was 0.00059 ± 0.0088.
With CUUAAGGACUGGAUCUUCUGGGUUACCAAA the “pre-steady-state target cleavage rate” value was 0.000576 ± 0.023.
With CUUAAGGAGACCUAGAUCUAGGGUUACCUAA the “pre-steady-state target cleavage rate” value was 0.000429 ± 0.025.
In the case of CUUAAGGAGACCUACUACUGGCUUACCUAA, the “pre-steady-state target cleavage rate” value is reported as 0.000139 ± 0.032.
For CUUAAGGAGACCUAGAUGUGGGUAACCAAA, the “pre-steady-state target cleavage rate” value was 0.000505 ± 0.017.
CUUAACCUCUCGGAUCUACUGGGUUACCUAA was tested, and the “pre-steady-state target cleavage rate” value was 0.0634 ± 0.017.
In the case of CUUAAGGAGUCGAUGUACUGGGUUACCUAA, the “pre-steady-state target cleavage rate” value is reported as 0.00103 ± 0.018.
CUUAAGCUCAGGAUCUACUGGGUAACCUAA was tested, and the “pre-steady-state target cleavage rate” value was 0.0259 ± 0.0088.
For CUUAAGGAGACCAUCUACUGGCGUUACCUAA, the “pre-steady-state target cleavage rate” value was 0.000239 ± 0.017.
CUUAAGGAGACCUACUACUGGGAUACCUUA was tested, and the “pre-steady-state target cleavage rate” value was 0.000416 ± 0.022.
With CUUAAGGAGAGUGAUCUACUGGGUUACCUAA the “pre-steady-state target cleavage rate” value was 0.00269 ± 0.004.
In the case of CUUAAGCUCUGGAUCUACUGGCUUACCUAA, the “pre-steady-state target cleavage rate” value is reported as 0.00151 ± 0.0066.
With CUUAAGGAGAGGAUCUACAGGGUUACCAAA the “pre-steady-state target cleavage rate” value was 0.00176 ± 0.0077.
With CUUAAGGAGACGAUCUACUGGGUUAUCCUAA the “pre-steady-state target cleavage rate” value was 0.00198 ± 0.0059.
CUUAAGGAGUGGUUCAACUGGGUUACCUAA was tested, and the “pre-steady-state target cleavage rate” value was 0.00146 ± 0.0088.
With CUUAAGGACUGGAUCUACUGCGUUACCUUA the “pre-steady-state target cleavage rate” value was 0.00289 ± 0.013.
CUUAAGGAGACCUAGAUCAUGGGUUACCUAA was tested, and the “pre-steady-state target cleavage rate” value was 0.000369 ± 0.021.
For “CUUAACCUCUGGAUCUACUGGGUUACCUAA [g2:g25:cont:t1A]”, the “pre-steady-state target cleavage rate” value was 0.101 ± 0.02.
With CUUAAGGAGACCUUCUACUGGCUUACCUUA the “pre-steady-state target cleavage rate” value was 0.00049 ± 0.015.
For CUUAAGGAGACCAUCGACUGGGUUACCUAA, the “pre-steady-state target cleavage rate” value was 0.000493 ± 0.019.
With CUUAAGGAGACGAUCUACUCGGUAACCUAA the “pre-steady-state target cleavage rate” value was 0.000112 ± 0.037.
With CUUAAGGACUGGAUCUACUGGGUUACUAA the “pre-steady-state target cleavage rate” value was 0.00578 ± 0.0074.
CUUAACCUCUGGAUCUACUGCGUUACGUAA was tested, and the “pre-steady-state target cleavage rate” value was 0.00362 ± 0.0041.
For CUUAAGCUCUGGAUCAACUGGGUUUCCUAA, the “pre-steady-state target cleavage rate” value was 0.0481 ± 0.015.
With CUUAAGGAGACCUACUACUGCGUUAGCUAA the “pre-steady-state target cleavage rate” value was 0.000151 ± 0.035.
In the case of CUUAAGGAGACCAACUACUGGGUUACCAAA, the “pre-steady-state target cleavage rate” value is reported as 0.00018 ± 0.04.
CUUAAGGAGACCAUCUUCUGGGUUACCAAA was tested, and the “pre-steady-state target cleavage rate” value was 0.00101 ± 0.011.
For “CUUAAGGAGACCUUCUACUGGGUUACCUAU [g2:g17:cont:t1U]”, the “pre-steady-state target cleavage rate” value was 0.00113 ± 0.01.
With CUUAAGGAGUGGAUCAACUGCGUUACCUAA the “pre-steady-state target cleavage rate” value was 0.00149 ± 0.0097.
CUUAAGGAGACGAUCUUCUGGGAUACCUAA was tested, and the “pre-steady-state target cleavage rate” value was 0.00173 ± 0.0035.
With CUUAAGGAGAGGAUCUACAGCGUUACCUAA the “pre-steady-state target cleavage rate” value was 0.00131 ± 0.0055.
For CUUAAGGAGACGAUCUACUGGGAAACCUAA, the “pre-steady-state target cleavage rate” value was 0.000663 ± 0.0076.
For CUUAAGGAGACCAUCUACUCGGUUACGUAA, the “pre-steady-state target cleavage rate” value was 0.000268 ± 0.039.
For CUUAAGGAGACGAUCUACUGGGUUACGUAA, the “pre-steady-state target cleavage rate” value was 0.00019 ± 0.018.
With CUUAACCUCUGCAUCUACUGGGUUACCAAA the “pre-steady-state target cleavage rate” value was 0.173 ± 0.055.
In the case of CUUAAGGUCAGGAUCUACUGGGUUAGCUAA, the “pre-steady-state target cleavage rate” value is reported as 0.000689 ± 0.024.
For CUUAUCCUCUGGAUGUACUGGGUAACCUAA, the “pre-steady-state target cleavage rate” value was 0.0198 ± 0.0082.
For CUUAACCACUGGAUCAACUGGGUUACCUAA, the “pre-steady-state target cleavage rate” value was 0.0515 ± 0.014.
With CUUAAGGAGUGGAUCUACUGGGUUACCGUAA the “pre-steady-state target cleavage rate” value was 0.0155 ± 0.0079.
CUUAAGGAGACCAUCUUGUGGGUUACCUAA was tested, and the “pre-steady-state target cleavage rate” value was 0.000665 ± 0.014.
With CUUAAGGAGUCGAUCAACUGGGUUACCUAA the “pre-steady-state target cleavage rate” value was 0.000708 ± 0.016.
For CUUAAGGACUGGAACUACUGCGUUACCUAA, the “pre-steady-state target cleavage rate” value was 0.00104 ± 0.018.
For CUUAAGGAGAGGUUCUACUGGGUUACCUUA, the “pre-steady-state target cleavage rate” value was 0.00292 ± 0.0051.
CUUAAGGAGAGGAUCUAGUGGGUUACCUUA was tested, and the “pre-steady-state target cleavage rate” value was 0.00114 ± 0.0077.
For CUUAAGGAGACCUAUUACUGGGUUACCUAA, the “pre-steady-state target cleavage rate” value was 0.000121 ± 0.023.
With CUUAAGGAGUGGUCUACUGGGUUACCUAA the “pre-steady-state target cleavage rate” value was 0.000653 ± 0.013.
With CUUAUCCUCUGGAUCUACUGCGGUUACCUAA the “pre-steady-state target cleavage rate” value was 0.00214 ± 0.0034.
In the case of CUUAAGGAGACCAUCUUCUGGGUUACCUAA, the “pre-steady-state target cleavage rate” value is reported as 0.00164 ± 0.0064.
In the case of CUUAAGGAGACCUACUACUGGCGUUACCUAA, the “pre-steady-state target cleavage rate” value is reported as 0.000103 ± 0.055.
CUUAAGGAGACCUUCAUGUGGGUUACCUAA was tested, and the “pre-steady-state target cleavage rate” value was 0.000445 ± 0.023.
With CUUAAGGAGACGAUCUACUGCGUUACCUUA the “pre-steady-state target cleavage rate” value was 0.000511 ± 0.011.
In the case of CUUAAGGAGACCUUCUACUGGGAUACCUAA, the “pre-steady-state target cleavage rate” value is reported as 0.000674 ± 0.011.
CUUAAGCUCUGGAUCUACUGGCGUUACCUAA was tested, and the “pre-steady-state target cleavage rate” value was 0.000346 ± 0.013.
